The source of these data is PMC7819943, “Rice protein-binding microarrays: a tool to detect cis-acting elements near promoter regions in rice”.

The other results are listed elsewhere or left out.

In the assay the target is T1, OsSMF1 (Oryza sativa, UniProt Q6ZLB0 1-436).
T1 sequence: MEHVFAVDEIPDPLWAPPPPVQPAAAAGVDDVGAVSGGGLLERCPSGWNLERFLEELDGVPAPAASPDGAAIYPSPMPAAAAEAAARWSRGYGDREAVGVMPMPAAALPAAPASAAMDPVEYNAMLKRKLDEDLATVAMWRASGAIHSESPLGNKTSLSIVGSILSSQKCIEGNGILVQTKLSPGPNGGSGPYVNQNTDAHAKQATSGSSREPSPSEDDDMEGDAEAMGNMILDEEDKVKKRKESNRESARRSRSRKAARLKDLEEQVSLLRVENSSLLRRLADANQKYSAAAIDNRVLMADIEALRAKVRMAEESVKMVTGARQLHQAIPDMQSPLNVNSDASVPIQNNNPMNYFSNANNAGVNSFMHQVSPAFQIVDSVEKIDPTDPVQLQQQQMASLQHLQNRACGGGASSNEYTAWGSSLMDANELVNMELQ
Nature of the assay: protein-binding microarray (RPBM); PBS, 2% BSA, 51.3 ng/ul salmon testes DNA, 50 uM zinc acetate, 200 nM TF, 25 C, 1 h; high values mean tight binding. The note with it: protein: recombinant; tags: N-terminal polyhistidine and DsRed monomer fusion (pET32a); chain copies: 2; label: CyDye5-dUTP incorporated in the synthesized complementary strand; 3' TTTTT single-stranded linker to array surface; dsDNA, one strand shown. In short, it runs like this:
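Per-feature fluorescence intensity (arbitrary units), read on an Axon 4000B scanner, is the binding signal. Transcription factors carrying an N-terminal polyhistidine tag and DsRed fusion were expressed in E. coli BL21-CodonPlus and purified on Ni–NTA. A custom Agilent array, made double-stranded by primer extension with Cy5-dUTP and blocked with 2% BSA, was incubated with 200 nM protein in PBS, 2% BSA, salmon testes DNA and 50 µM zinc acetate at 25 °C for 1 h and then washed.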
Consider “CCTCCGCTTCCCTCTTCTCACGTCATGATAGCCGCCGAGGCGGAGTCACCTAGTGCAG”, for which the binding signal is 15700 fluorescence intensity (a.u.).
The figure for “AACGACTCGCCCTTGCGATTTTGCGAATGATAAACGAACGCGGAGTCACCTAGTGCAG” is 24800 fluorescence intensity (a.u.); for “TGCGAGATAAATCTTTTAAGCCTGATTGCGTGTTGATTTGCGGAGTCACCTAGTGCAG” it is 4310 fluorescence intensity (a.u.).
Consider “GCGCTCGCACGTGGGCACGTGGCTAGGCTTGGCTTCGCTTCGGAGTCACCTAGTGCAG”, for which the binding signal is 5600 fluorescence intensity (a.u.).
Next, “AGGAGGAAGAAGAGGAAGGTGAGAATGACACGTGGGTCCCCGGAGTCACCTAGTGCAG”: 11900 fluorescence intensity (a.u.); “AGTTTATTATATATTATAGATGATGCATATTCAGGTCGGACGGAGTCACCTAGTGCAG”: 3610 fluorescence intensity (a.u.).
The figure for “TAATTCAGCTTAATAAATTCGTCCAGCTGTTTACTGACTGCGGAGTCACCTAGTGCAG” is 52800 fluorescence intensity (a.u.).
The figure for “AACTTTGTTGTTGATGACGTTTTCAGTTGAAGTCGTTCACCGGAGTCACCTAGTGCAG” is 7120 fluorescence intensity (a.u.).
On to “CGGGCTTGTGAAGACCTTCACCTCTGACGGGCCACCATCACGGAGTCACCTAGTGCAG”, for which the binding signal is 3260 fluorescence intensity (a.u.).
The figure for “AAACGGAGGTCGTAGGACTGAATCTACTCACATGGGCACACGGAGTCACCTAGTGCAG” is 3870 fluorescence intensity (a.u.); for “GAGTTTGGCACTTCGAAAGGCAAGAGTCTGTCCACGTCGGCGGAGTCACCTAGTGCAG” it is 10600 fluorescence intensity (a.u.).
Next, “TGGGTTCGAATCATTTGTGTGCCACAGTGTTACATTCGGGCGGAGTCACCTAGTGCAG”: 3160 fluorescence intensity (a.u.).
The figure for “GTCTCGACACTGACTGTGATGCTTTGCATCGTCATTTGTCCGGAGTCACCTAGTGCAG” is 3910 fluorescence intensity (a.u.).
For “AAGGTCGCCAGCCAGGTGTGACGCGTTCGGGGCCCCGCACCGGAGTCACCTAGTGCAG”, the binding signal is 6570 fluorescence intensity (a.u.).
Next, “GCTTCTTCTACTTATTAATCCTTCGTCACTATCGATCGGACGGAGTCACCTAGTGCAG”: 3440 fluorescence intensity (a.u.); “TAATCACCCTATTAACCTGCATTTCTCATCTACCCCTTCACGGAGTCACCTAGTGCAG”: 3910 fluorescence intensity (a.u.); “CATGTTTGTCGTGTGGCCAGGACGTGAAGTCCTCGTCACCCGGAGTCACCTAGTGCAG”: 5340 fluorescence intensity (a.u.).
The figure for “TACCATGTATATCTTGTTGCATAAATAGATCTTGTCATCACGGAGTCACCTAGTGCAG” is 4330 fluorescence intensity (a.u.); for “TCCCGTGCAGCCGTGGCAGCCGCGCGCTGCTCGAGTCCGGCGGAGTCACCTAGTGCAG” it is 4470 fluorescence intensity (a.u.).
Turning to “CACGTAGCCGTCATGTCAGCGAAACCACCCTCTAAAACTCCGGAGTCACCTAGTGCAG”, the binding signal is 3220 fluorescence intensity (a.u.).
The figure for “TCTACACACAGCCACGTTGAGGGGCTGGTGAGCGCGCGCTCGGAGTCACCTAGTGCAG” is 14100 fluorescence intensity (a.u.); for “GATGGTCACGCGTGGACGTCAGCTTGGGAGCGAATCCGTTCGGAGTCACCTAGTGCAG” it is 5170 fluorescence intensity (a.u.); for “GCCAAAGGTTGGTAATGCCCATGCTCAATTTGACACAATTCGGAGTCACCTAGTGCAG” it is 30400 fluorescence intensity (a.u.).
Next, “GAATTGTGTCGGCGACTCGGCGTCACGGCCGCACTGCTTTCGGAGTCACCTAGTGCAG”: 3290 fluorescence intensity (a.u.).
The figure for “AGACACACATGCCACCGGAAAGGGTTCTTTTGTTGTTGCTCGGAGTCACCTAGTGCAG” is 3220 fluorescence intensity (a.u.).
On to “CGGCCCATAGCTCGTCGCGTCACGCCGACCGTTTGGTTCGCGGAGTCACCTAGTGCAG”, for which the binding signal was 7480 fluorescence intensity (a.u.).
Next, “GCGCCGCCTTCCGCCGCATCGTCACCAGCCGCTCCTTCCTCGGAGTCACCTAGTGCAG”: 3860 fluorescence intensity (a.u.).
On to “TTTGTCCTGCGTGACGGCTGAGTCAGCATAGACCCACGTGCGGAGTCACCTAGTGCAG”, for which the binding signal was 29800 fluorescence intensity (a.u.).
For the sequence “AGAGAGAGGGACGAAAGAAAGAAGAGAGGAGGCAATGACACGGAGTCACCTAGTGCAG”, the binding signal was 29900 fluorescence intensity (a.u.).
The figure for “GCCACAAGTCCGCAATAAACCACCACACACCACGTACCGGCGGAGTCACCTAGTGCAG” is 3700 fluorescence intensity (a.u.); for “CGGCGCTGGGACCTGGCGGCGTGGTGGCCCTGCGCGGGAGCGGAGTCACCTAGTGCAG” it is 27800 fluorescence intensity (a.u.).
The figure for “AGGGCGCTCGGCTCGGCGCGGCTCACGCGCACGGGTGCGCCGGAGTCACCTAGTGCAG” is 3550 fluorescence intensity (a.u.); for “GCATTCAGTATAACTTTCTAATACAATACCTATTGCCATTCGGAGTCACCTAGTGCAG” it is 22400 fluorescence intensity (a.u.).
Consider “CATTAATTCCATCATTGGCTTTGTGCCCATGTTTGTATGCCGGAGTCACCTAGTGCAG”, for which the binding signal is 7620 fluorescence intensity (a.u.).
Next, “GTATTCAAATACCGTATATCATAACTTCATAAGAGAACAGCGGAGTCACCTAGTGCAG”: 29300 fluorescence intensity (a.u.); “CCCAATGAGGTGTGCAGCGTAGTTTGGACTTTTCATTTGGCGGAGTCACCTAGTGCAG”: 3370 fluorescence intensity (a.u.).
Next, “TTGGTACTATACCTGTAGTTTTGACATATATTTGCTACTTCGGAGTCACCTAGTGCAG”: 3140 fluorescence intensity (a.u.); “TAAAGTAGTTTTACACGTAAATCAGATGCTGACGTCAGCGCGGAGTCACCTAGTGCAG”: 48600 fluorescence intensity (a.u.); “GTGCGGATGGGGAGGTGTGGTGGAAGGGTGGACAGTGGAGCGGAGTCACCTAGTGCAG”: 3410 fluorescence intensity (a.u.).
Next, “TAAGTTTCCGTTTTGGATCTTGCGTGGGTGCGAGGAATCGCGGAGTCACCTAGTGCAG”: 3430 fluorescence intensity (a.u.).
Consider “AAACTGCACGTGGACCTGAAGCATTTTCTCCTTCGTTTACCGGAGTCACCTAGTGCAG”, for which the binding signal was 4610 fluorescence intensity (a.u.).
The figure for “AAGGGAATCAGAGGAAGCAGTAATGACTAATGACCAATGTCGGAGTCACCTAGTGCAG” is 3560 fluorescence intensity (a.u.).
